The target of this assay is CCT8-FLAG (P. falciparum CCT8/θ subunit with C-terminal 3x-FLAG tag) (P. falciparum) (UniProt O96220). In words: affinity purification with mass spectrometry; lysate of the CCT-theta-FLAG parasite line (1 L culture) on 200 µl anti-FLAG resin overnight at 4°C; wash 30 mM HEPES pH 8.0, 300 mM NaCl, 2.5% glycerol, 2 mM EDTA, 4 mM DTT; bead-bound fraction by Tandem Mass Tag mass spectrometry; hits more than two-fold over the RNAP2-FLAG control pull-down.

Sequences of proteins named here, by UniProt entry; tags and fusion partners are left off. A change or cut given only in a name is not applied to a line headed by its entry.
UniProt O97282: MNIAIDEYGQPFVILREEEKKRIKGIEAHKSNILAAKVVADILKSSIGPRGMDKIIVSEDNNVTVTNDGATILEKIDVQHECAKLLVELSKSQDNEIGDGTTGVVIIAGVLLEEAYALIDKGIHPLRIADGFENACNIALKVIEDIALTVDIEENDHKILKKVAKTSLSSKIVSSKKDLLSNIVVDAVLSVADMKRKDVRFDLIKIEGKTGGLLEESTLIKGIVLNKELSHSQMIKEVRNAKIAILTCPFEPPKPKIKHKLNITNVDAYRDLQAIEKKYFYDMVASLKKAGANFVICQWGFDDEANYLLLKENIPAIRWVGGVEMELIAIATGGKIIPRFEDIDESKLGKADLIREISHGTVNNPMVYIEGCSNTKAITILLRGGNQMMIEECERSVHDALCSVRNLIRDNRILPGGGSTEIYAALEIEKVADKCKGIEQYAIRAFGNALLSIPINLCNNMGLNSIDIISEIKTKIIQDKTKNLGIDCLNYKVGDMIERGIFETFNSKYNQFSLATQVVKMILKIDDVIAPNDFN
UniProt Q8I450: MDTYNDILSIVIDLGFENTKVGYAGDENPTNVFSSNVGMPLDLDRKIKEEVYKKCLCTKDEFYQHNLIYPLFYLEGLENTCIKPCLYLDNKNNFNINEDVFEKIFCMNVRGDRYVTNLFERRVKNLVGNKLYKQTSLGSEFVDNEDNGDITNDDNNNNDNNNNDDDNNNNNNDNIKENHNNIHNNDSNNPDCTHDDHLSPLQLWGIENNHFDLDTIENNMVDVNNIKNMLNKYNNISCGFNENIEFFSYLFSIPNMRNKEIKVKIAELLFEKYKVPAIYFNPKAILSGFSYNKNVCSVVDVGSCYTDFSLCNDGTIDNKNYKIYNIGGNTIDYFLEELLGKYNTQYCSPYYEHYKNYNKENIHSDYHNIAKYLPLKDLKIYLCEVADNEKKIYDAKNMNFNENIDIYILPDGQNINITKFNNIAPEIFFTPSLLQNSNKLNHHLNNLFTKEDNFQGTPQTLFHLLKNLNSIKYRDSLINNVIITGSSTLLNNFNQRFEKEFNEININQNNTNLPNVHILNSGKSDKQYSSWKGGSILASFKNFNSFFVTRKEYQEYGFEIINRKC
UniProt O97292: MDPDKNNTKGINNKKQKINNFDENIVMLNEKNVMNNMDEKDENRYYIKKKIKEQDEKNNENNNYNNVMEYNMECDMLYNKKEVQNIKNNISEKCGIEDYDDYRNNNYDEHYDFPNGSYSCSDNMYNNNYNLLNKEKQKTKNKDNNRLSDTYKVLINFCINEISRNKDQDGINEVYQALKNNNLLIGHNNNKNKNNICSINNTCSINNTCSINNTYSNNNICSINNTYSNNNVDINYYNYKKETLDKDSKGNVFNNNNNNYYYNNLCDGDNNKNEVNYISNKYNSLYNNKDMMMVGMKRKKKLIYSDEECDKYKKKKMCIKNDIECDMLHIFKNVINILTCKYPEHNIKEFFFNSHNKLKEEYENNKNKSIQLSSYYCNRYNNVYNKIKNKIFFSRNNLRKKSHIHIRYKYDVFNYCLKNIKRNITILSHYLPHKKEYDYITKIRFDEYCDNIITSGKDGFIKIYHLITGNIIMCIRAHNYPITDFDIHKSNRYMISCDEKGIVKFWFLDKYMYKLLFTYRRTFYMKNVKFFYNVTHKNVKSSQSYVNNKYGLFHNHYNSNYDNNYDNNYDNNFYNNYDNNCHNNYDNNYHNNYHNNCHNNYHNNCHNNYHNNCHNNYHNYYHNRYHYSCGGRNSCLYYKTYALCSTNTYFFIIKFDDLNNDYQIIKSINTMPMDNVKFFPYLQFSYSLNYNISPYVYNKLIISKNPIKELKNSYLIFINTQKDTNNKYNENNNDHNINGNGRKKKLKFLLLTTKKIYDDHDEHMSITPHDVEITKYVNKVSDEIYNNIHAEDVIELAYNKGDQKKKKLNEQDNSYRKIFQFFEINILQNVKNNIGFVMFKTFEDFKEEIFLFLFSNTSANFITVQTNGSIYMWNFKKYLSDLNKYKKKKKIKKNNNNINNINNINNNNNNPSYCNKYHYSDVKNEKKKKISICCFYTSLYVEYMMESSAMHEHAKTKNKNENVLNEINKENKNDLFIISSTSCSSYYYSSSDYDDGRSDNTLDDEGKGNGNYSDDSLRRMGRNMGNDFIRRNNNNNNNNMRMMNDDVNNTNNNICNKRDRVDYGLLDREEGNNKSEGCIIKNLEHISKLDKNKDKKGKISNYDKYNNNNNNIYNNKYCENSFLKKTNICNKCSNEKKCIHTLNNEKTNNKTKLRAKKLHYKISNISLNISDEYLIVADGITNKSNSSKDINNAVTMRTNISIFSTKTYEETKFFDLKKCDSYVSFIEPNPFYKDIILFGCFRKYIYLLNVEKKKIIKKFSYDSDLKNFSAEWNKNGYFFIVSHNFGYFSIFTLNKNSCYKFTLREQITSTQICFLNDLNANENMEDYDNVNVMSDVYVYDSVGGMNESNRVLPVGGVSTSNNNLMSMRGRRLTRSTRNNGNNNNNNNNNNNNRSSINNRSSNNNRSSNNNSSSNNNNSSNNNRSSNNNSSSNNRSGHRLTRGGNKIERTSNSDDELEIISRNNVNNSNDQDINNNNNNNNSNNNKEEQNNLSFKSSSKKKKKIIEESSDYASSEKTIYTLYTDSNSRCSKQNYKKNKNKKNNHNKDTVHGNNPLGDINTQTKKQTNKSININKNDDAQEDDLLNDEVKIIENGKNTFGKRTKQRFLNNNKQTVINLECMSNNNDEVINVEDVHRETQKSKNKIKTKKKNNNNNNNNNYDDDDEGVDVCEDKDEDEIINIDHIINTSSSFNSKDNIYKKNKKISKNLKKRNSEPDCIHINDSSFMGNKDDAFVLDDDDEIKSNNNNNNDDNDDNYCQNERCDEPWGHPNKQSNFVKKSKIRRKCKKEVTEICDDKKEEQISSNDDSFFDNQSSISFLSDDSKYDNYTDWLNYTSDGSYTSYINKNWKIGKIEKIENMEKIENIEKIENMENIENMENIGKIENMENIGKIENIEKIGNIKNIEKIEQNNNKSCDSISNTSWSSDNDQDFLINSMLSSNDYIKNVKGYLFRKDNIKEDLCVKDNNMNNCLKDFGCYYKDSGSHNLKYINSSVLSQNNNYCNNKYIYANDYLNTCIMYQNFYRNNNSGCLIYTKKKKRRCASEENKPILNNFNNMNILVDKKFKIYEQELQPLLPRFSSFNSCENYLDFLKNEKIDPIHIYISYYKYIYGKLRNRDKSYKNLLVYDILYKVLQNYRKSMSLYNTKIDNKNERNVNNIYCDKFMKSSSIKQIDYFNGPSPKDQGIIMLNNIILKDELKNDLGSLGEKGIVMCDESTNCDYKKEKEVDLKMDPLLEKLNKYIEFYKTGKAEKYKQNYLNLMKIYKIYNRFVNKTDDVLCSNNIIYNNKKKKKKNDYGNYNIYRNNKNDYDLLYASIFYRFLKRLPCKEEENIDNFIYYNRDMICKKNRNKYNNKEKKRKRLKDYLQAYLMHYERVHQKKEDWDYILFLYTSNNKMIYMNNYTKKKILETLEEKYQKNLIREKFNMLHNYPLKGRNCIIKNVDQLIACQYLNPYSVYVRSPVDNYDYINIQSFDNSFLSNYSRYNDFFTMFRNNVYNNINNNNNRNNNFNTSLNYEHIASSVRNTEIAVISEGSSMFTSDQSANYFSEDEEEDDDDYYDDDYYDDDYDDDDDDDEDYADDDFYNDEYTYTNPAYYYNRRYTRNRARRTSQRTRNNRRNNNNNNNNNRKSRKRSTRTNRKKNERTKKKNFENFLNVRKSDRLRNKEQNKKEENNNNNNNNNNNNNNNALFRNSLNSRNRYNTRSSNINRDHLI
UniProt Q8IJX5: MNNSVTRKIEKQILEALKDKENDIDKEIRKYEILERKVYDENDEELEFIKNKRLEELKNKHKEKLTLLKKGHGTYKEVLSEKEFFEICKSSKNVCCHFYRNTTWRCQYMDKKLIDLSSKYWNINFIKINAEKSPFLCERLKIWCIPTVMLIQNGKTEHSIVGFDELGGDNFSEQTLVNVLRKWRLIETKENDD
UniProt A0A143ZY29: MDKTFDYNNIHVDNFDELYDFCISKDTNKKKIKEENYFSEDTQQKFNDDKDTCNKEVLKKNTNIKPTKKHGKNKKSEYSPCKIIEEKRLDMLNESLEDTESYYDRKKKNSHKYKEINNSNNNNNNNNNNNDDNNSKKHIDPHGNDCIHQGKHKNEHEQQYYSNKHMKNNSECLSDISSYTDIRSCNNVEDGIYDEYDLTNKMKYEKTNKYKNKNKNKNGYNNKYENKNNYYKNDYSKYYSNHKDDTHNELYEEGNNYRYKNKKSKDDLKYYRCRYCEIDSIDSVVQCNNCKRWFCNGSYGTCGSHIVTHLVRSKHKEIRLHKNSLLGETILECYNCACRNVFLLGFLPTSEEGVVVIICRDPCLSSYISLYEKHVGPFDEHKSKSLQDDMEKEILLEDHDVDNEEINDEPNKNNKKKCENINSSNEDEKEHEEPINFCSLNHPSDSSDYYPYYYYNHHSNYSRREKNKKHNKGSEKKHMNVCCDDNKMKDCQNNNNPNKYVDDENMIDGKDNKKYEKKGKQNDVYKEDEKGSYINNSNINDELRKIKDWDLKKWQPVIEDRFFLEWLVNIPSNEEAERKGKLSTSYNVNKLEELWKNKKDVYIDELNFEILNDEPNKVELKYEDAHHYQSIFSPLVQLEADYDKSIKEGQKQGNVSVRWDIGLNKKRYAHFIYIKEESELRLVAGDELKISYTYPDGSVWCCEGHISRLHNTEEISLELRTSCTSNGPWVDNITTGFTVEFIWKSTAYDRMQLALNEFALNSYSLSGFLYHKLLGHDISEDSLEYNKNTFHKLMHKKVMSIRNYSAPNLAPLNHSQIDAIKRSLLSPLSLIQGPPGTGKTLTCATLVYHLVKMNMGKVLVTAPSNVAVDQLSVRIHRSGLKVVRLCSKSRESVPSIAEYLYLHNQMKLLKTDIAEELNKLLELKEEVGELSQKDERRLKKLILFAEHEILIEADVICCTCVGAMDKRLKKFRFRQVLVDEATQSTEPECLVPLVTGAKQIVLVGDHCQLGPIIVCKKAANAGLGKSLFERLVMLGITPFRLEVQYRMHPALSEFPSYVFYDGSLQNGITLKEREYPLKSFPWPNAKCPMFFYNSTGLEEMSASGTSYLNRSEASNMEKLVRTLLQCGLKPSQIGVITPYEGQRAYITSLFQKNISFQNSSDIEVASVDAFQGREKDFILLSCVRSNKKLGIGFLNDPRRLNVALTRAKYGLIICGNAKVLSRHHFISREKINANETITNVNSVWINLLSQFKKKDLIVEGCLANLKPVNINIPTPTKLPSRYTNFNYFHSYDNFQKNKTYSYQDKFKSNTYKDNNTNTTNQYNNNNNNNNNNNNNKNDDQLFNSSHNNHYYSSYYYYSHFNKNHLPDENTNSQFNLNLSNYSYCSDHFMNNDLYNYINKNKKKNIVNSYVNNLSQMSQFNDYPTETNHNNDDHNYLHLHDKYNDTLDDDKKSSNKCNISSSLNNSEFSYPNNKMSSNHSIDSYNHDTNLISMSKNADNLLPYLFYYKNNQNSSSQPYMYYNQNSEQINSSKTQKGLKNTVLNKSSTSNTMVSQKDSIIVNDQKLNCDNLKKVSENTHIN
UniProt Q8ILC1: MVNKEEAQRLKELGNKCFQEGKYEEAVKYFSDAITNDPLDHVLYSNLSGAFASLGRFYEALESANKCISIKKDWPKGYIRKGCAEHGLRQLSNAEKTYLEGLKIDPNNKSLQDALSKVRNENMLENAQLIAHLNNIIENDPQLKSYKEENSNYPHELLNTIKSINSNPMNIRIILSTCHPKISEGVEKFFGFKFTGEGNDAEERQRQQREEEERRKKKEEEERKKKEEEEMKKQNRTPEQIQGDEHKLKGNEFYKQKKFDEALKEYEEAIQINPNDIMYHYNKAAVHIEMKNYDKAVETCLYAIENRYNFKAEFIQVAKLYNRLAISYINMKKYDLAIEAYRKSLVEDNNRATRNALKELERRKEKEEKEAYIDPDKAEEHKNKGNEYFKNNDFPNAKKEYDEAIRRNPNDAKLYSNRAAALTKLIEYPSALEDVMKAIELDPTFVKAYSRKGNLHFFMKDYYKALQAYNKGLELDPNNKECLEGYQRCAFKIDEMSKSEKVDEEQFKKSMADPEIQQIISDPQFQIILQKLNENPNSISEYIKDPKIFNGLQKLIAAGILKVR
UniProt Q8IL88: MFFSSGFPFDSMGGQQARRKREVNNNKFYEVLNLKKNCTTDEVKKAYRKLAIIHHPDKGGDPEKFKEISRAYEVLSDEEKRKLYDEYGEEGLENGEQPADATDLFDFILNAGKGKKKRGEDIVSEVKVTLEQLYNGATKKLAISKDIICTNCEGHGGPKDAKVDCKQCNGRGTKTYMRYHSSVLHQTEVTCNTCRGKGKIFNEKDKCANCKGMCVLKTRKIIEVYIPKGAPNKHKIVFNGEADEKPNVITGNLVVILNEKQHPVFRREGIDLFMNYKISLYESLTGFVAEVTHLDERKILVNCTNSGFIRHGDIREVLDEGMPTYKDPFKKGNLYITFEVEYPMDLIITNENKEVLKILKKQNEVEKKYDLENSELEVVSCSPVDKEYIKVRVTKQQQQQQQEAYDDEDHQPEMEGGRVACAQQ

No constants are given. Whether binding was seen depends on the method and setting. Binding seen in cells or lysates may run through a third protein. These calls come from enrichment with a bait or labelling near it, and not all partners need be listed.

Regarding WD40 U3snoRNA (from UniProt Q8ILZ2), the binding result was “binds”.
For WD40 CAF1 (from UniProt Q8IE52), the binding result is “binds”.
For WD40 CAF1 complex (from UniProt Q8I5D0), the binding result was “binds”.
Turning to CCT5 (from UniProt O97282), the binding entry was “binds”.
As to “initiation factor 2α (eIF2α) (from UniProt Q8IBH7)”, the binding result is recorded as “binds”.
Regarding CCT2 (from UniProt O97247), the binding result was “binds”.
As to “WD40 mRNA splicing (Q8IJZ5) (from UniProt Q8IJZ5)”, the binding entry is recorded as “binds”.
In the case of CCT4 (from UniProt C0H5I7), the binding result is “binds”.
Take “Tubulin α-chain Chr 4 (from UniProt Q8IFP3 1-450)”: the binding entry is reported as “binds”.
Regarding WD40 Coatomer β (from UniProt Q8I390), the binding entry is “binds”.
As to WD40 Coatomer α (from UniProt C6KSR5), the binding entry is “binds”.
Take “WD40 mRNA splicing (C0H5G7) (from UniProt C0H5G7)”: the binding result was “binds”.
Consider WD40 dsDNA break (from UniProt Q8IJ73), for which the binding result is recorded as “binds”.
Turning to PfEF2 (from UniProt Q8IKW5), the binding entry is recorded as “binds”.
As for “WD40 novel (Q8IKN9) (from UniProt Q8IKN9)”, the binding entry is on record as “binds”.
The same measure for WD40 NOP10 (from UniProt Q8IAL3): “binds”; for Actin II (from UniProt Q8ILW9 1-376): “binds”; for “WD40 Fe-S assembly (from UniProt Q8I5V5)”: “binds”.
The value for Actin-like (from UniProt Q8I450) was “binds”; that for “WD40 mRNA splicing (O97292) (from UniProt O97292)” was “binds”.
For the molecule Actin I (from UniProt Q8I4X0 1-376), the binding result is on record as “binds”.
Phosducin-like 2 (from UniProt Q8IJX5): the binding entry is listed as “binds”.
The value for “component of the diphthamide complex (from UniProt A0A143ZY29)” was “binds”; that for “WD40 novel (Q8IHX6) (from UniProt Q8IHX6)” was “binds”.
On to “WD40 mRNA splicing (Q8IL37) (from UniProt Q8IL37)”, for which the binding entry is “binds”.
The same measure for “Tubulin α-chain Chr 9 (from UniProt Q6ZLZ9 1-453)”: “binds”; for “Hsp70-Hsp90 organising protein (from UniProt Q8ILC1 1-564)”: “binds”.
Take “Tubulin γ-chain complex (from UniProt Q8I2I3)”: the binding entry is listed as “binds”.
Take Actin-related (from UniProt Q8IBQ9): the binding result is on record as “binds”.
“ATG7 related protein (Q8IC20) (from UniProt Q8IC20)”: the binding entry is listed as “binds”.
The same measure for Hsp40A chaperone (from UniProt Q8IL88): “binds”.

B1: Tubulin γ-chain (protein, UniProt Q8IAN7 1-452)
chain: MPREIITLQCGQCGNQIGVEFWKQLCNEHNIDQEGILKNNNFLNEDRKDIFFYQADDEHFIPRALLFDLEPRVINSIQTSEYRNLYNPENMFISKEGGGAGNNWGCGYSQGHKVEEEIIDMIDREVDNSDNLEGFILSHSIAGGTGSGMGSYLLELLNDNYSKKMIQTFSVFPLLTNESSDVVVQPYNSILTLKRLILSTDSVVVIDNTSLNRIFVERLKLNNPTFQQTNTIISNVMSASTTTLRYPGSMNNDMISLISSLIINPKCHFLITSYTPITIDKHISNVQKTTVLDVMKRLLHTKNIMVSAPVRRGMYISILNIIRGETDPTQVHKGLQRIRDRKLVNFIKWNPASIQVTLAKQSPHVVSQHKVCGLMMANHTSISTLFERCVTQFDRLYKRRAFLENYKKESMFSSADGQGNFEEMESSKEITQNLIDEYKSAERDDYFTNTYI
For the molecule B1, the binding entry is “binds”.

B2: activator of Hsp90 ATPase (protein, UniProt O97244 1-349)
chain: MSGSVWNSNSWHWEERNYNKWAESYIKYNLSNLKIEKEDLTIYFDNLQVSGNACVSIRKGKQINSFEYIIKFEWLYSKKKEGKDYFGGSVEIPDFSTFSLEENDYAINIERTDESENLRFIYDSILKKEGKEKIKECLKNFQEDLLKHDKNESNKELKIKEEEKIKLENIKTCNEKKTEEENKSNQNINNNINDEKKEGSVWNINNYHWEEKCLTKWAIEELQNIFNKSIIELSNNIFLEFFSCDVEGEASSSLRKKKKILMYDLKITSEWKAYQKNKNQQIEIESKGHVSINDILSDFSSDDNTKYSYYFIFDNKTDEYNQINDVIKLEGPNKINQIIDDFILKMREK
As for B2, the binding entry is “binds”.

The values are drawn from paper PMC9772883.
